Test in all cases: peptide or protein array; Panomics SH3 Domain Arrays I and II: immobilised SH3 domains fused to GST, hybridised with purified N-terminally His-tagged SH3-b domain, detected with peroxidase-conjugated anti-His antibody and ECL; both purified
The target of assay [1] is Abi2-SH3 domain (AbI2B) (SH3 domain array) (UniProt Q9NYB9).
The target in assay [2] is Abl SH3 domain (SH3 domain array) (UniProt P00519).
The target in assay [3] is Abl2 (ARG) SH3 domain (SH3 domain arrays) (UniProt P42684).
Assay [4] addresses T1, BIN1 SH3 domain (SH3 domain array) (UniProt O00499).
T1 sequence: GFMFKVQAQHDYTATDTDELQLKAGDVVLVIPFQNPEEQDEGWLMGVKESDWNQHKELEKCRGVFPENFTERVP

Chains of the proteins cited; added tags and fusions are not shown. Lines headed by an entry give the natural chain unless they say otherwise; changes in a name come on top. Residues count along the entry.
UniProt Q9NYB9, residues 451-510: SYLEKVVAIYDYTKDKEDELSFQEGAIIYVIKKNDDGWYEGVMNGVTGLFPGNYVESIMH
UniProt P00519, residues 61-121: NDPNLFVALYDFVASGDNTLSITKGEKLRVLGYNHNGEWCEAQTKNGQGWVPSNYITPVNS
UniProt P42684, residues 107-167: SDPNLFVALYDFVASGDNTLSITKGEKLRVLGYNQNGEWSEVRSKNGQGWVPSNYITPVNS
UniProt O14936, residues 612-682: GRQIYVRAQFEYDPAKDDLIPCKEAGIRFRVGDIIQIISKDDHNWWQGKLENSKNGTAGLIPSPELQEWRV
UniProt P19878: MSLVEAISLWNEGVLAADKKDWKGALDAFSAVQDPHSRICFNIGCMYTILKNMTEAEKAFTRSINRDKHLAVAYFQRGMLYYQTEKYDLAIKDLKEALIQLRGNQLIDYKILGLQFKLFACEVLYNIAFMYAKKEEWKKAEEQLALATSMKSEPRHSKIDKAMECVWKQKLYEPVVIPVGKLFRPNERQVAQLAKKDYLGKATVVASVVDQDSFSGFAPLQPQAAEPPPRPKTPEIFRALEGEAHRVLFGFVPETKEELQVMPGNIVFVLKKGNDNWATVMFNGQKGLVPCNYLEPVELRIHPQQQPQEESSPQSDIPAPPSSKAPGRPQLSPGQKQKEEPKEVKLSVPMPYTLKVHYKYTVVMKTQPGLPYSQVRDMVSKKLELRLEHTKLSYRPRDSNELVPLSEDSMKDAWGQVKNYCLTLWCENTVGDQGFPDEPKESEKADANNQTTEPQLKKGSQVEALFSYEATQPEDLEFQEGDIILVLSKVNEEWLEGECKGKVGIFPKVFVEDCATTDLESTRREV
UniProt P56945: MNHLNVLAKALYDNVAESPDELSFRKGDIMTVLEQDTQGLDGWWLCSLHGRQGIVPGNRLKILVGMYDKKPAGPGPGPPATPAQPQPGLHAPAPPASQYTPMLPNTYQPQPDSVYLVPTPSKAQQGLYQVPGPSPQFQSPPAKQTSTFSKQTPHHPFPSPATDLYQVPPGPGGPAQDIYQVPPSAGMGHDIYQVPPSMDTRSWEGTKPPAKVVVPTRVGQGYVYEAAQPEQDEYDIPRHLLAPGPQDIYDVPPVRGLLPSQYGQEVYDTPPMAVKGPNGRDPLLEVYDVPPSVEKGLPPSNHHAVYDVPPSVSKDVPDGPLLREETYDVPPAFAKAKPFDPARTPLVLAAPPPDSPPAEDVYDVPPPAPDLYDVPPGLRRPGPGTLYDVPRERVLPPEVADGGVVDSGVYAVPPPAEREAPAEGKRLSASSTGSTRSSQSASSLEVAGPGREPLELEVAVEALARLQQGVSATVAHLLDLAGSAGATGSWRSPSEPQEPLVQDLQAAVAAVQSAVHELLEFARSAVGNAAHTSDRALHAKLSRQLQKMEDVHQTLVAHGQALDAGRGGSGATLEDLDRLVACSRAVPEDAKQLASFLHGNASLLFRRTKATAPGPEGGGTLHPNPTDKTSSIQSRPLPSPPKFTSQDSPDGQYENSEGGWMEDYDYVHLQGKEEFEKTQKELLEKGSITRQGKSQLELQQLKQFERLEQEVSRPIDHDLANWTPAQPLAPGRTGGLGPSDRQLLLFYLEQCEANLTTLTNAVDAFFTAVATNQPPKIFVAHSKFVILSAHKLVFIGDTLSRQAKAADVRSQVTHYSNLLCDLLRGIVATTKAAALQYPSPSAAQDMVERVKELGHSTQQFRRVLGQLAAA

The target in assay [5] is CSKP SH3 domain (SH3 domain array) (UniProt O14936).
For assay [6], the target named is T2, M3KA SH3 domain (SH3 domain array) (UniProt Q02779).
T2 sequence: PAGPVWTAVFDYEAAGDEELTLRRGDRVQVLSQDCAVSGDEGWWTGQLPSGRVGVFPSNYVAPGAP

Assay [7] deals with T3, MLPK3 SH3 domain (SH3 domain array) (UniProt Q16584).
T3 sequence: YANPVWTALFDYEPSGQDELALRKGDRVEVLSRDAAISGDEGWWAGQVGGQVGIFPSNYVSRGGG

Assay [8] addresses T4, NE-DLG SH3 domain (SH3 domain array) (UniProt Q92796).
T4 sequence: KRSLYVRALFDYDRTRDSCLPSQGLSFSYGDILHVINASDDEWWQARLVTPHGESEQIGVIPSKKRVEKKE

Assay [9] concerns the target NOF2-D1 SH3 domain (SH3 domain arrays) (UniProt P19878).
Assay [10] deals with T5, OSF SH3 domain (SH3 domain array) (UniProt Q92882).
T5 sequence: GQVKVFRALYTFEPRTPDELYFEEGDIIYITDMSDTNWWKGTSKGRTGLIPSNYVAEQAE

No constants are given. Whether binding was seen depends on the method and setting. A result given as binding can be weak or reduced; the word gives no strength.

In the case of “His-tagged-p130Cas-P2 domain (from UniProt P56945) (domain or fragment)”, the binding entry was “binds” in [1]; “binds weakly” in [2]; “binds” in assay [3]; “binds weakly” in assay [4]; “binds weakly” in assay [5]; “binds weakly” in [6]. Further, the binding entry in assay [7], in assay [8], in assay [9] and in assay [10] was “binds” in each case.

The record behind these values is publication PMC3629710.
